According to the supplement of paper PMC5949888:
Most values lie at the floor of the assay. Slopes are relative: functional sequences can read slightly below zero.

The substances below were run on Saccharomyces cerevisiae PS128 hsf1 delta, HSF1(1-493) fusion (assay: growth estimate (transactivation domain function in HSF1 fusion, heat-shock survival) (a.u. (slope of normalised read count over time)); higher = stronger growth at 37°C, i.e. more transactivation activity). Details: library: random library.

Q: SMSAGGS was tested. Which growth estimate did it give?
A: < -0.25

Q: How did the growth estimate turn out when SMSISVLGHQQM was run?
A: < -0.25

Q: How did the growth estimate turn out when SMTGNSDRMVAVRPPNNGDG was run?
A: < -0.25

Q: SMTL was tested. Which growth estimate did it give?
A: < -0.25

Q: SMTLR was tested. Which growth estimate did it give?
A: < -0.25

Q: How did the growth estimate turn out when SMTPMVIIDSRRTIVV was run?
A: < -0.25

Q: SMTQ was tested. Which growth estimate did it give?
A: < -0.25

Q: Which growth estimate does the source give for SMVRQFSSVLSLYSSANRL here?
A: < -0.25

Q: For SMVSTV, which growth estimate is on record?
A: < -0.25

Q: SMVTGQA was tested. Which growth estimate did it give?
A: < -0.25

Q: For SMVTSSPLVPEYPRRKCES, which growth estimate is on record?
A: < -0.25

Q: With SMVYLMRKCVDTIGTKHGSQ as the substance, how does the growth estimate read?
A: < -0.25

Q: With SNCGGGLLLVRRR as the substance, how does the growth estimate read?
A: < -0.25

Q: For SNEDGCRVMYRTV, which growth estimate is on record?
A: < -0.25

Q: With SNGAKRSLNSIIIAISGVGP as the substance, how does the growth estimate read?
A: -0.231

Q: With SNLAS as the substance, how does the growth estimate read?
A: < -0.25

Q: For SNLVSGFLHEADSMRNIRES, which growth estimate is on record?
A: < -0.25

Q: For SNQASNSYPTEVC, which growth estimate is on record?
A: < -0.25

Q: How did the growth estimate turn out when SNRASLHWMNSLALSWFTSF was run?
A: < -0.25

Q: For SNRGRYVPIGSCLSRLAADR, which growth estimate is on record?
A: < -0.25

Q: For SNSGSEVHRKLTVILA, which growth estimate is on record?
A: < -0.25

Q: How did the growth estimate turn out when SNSGWKELIASWSPPVRGHL was run?
A: < -0.25

Q: Which growth estimate does the source give for SNSRMPRYPIRF here?
A: < -0.25

Q: Which growth estimate does the source give for SNTLVFKRYVS here?
A: < -0.25

Q: How did the growth estimate turn out when SNVRDLIIRAHTVNPEEAPK was run?
A: < -0.25

Q: SNYVLRLVRGPCRNVPMTVP was tested. Which growth estimate did it give?
A: < -0.25

Q: For SPAEGDGTYWLSTWERHSVG, which growth estimate is on record?
A: -0.177

Q: How did the growth estimate turn out when SPALSLSNLRLRDLSVRRDA was run?
A: < -0.25

Q: SPAR was tested. Which growth estimate did it give?
A: < -0.25

Q: How did the growth estimate turn out when SPASIGTLNYPVNYMVQRGM was run?
A: < -0.25

Q: Which growth estimate does the source give for SPCGVCSRDMTLRRLAR here?
A: < -0.25

Q: Which growth estimate does the source give for SPCWGGGDHYRYAPERLRKQ here?
A: < -0.25

Q: Which growth estimate does the source give for SPDCLFVLGYVSRCIVAG here?
A: < -0.25

Q: For SPDENRDSAQAHRNGPRFRM, which growth estimate is on record?
A: < -0.25

Q: How did the growth estimate turn out when SPEL was run?
A: < -0.25

Q: SPGDSS was tested. Which growth estimate did it give?
A: < -0.25

Q: SPGEVSGVPRLRPACV was tested. Which growth estimate did it give?
A: < -0.25

Q: For SPGIRT, which growth estimate is on record?
A: < -0.25

Q: With SPI as the substance, how does the growth estimate read?
A: < -0.25

Q: Which growth estimate does the source give for SPKEPGCRFVVSLLGFL here?
A: < -0.25

Q: How did the growth estimate turn out when SPKMPASTRGHTT was run?
A: < -0.25

Q: Which growth estimate does the source give for SPKRWYINAAFSLGR here?
A: < -0.25

Q: For SPLCPVAISQEIHLTSPGIG, which growth estimate is on record?
A: < -0.25

Q: How did the growth estimate turn out when SPLPAP was run?
A: < -0.25

Q: How did the growth estimate turn out when SPLRENELTKRMRLPQFWVF was run?
A: < -0.25

Q: Which growth estimate does the source give for SPLTTARSSGTRTIPL here?
A: < -0.25

Q: With SPMFY as the substance, how does the growth estimate read?
A: < -0.25

Q: SPP was tested. Which growth estimate did it give?
A: < -0.25

Q: Which growth estimate does the source give for SPPQRGHCSTPRSSLSPAHL here?
A: < -0.25

Q: SPPRLGAKGFKNIIVGQPHR was tested. Which growth estimate did it give?
A: < -0.25

Q: SPPTLPKSRVPPD was tested. Which growth estimate did it give?
A: < -0.25

Q: For SPQCR, which growth estimate is on record?
A: < -0.25

Q: SPQGRLSRGAESVSFPGVRR was tested. Which growth estimate did it give?
A: < -0.25

Q: Which growth estimate does the source give for SPQRALSFVPRDCPPNRLMI here?
A: < -0.25

Q: How did the growth estimate turn out when SPQRNDRPCSNAGHYRVICP was run?
A: < -0.25

Q: Which growth estimate does the source give for SPSALVRISYRGGPMTHCPP here?
A: < -0.25

Q: How did the growth estimate turn out when SPSMIAGAGLDRRIIHCRHI was run?
A: < -0.25

Q: How did the growth estimate turn out when SPSPRTLLRRAKGVDHHRLA was run?
A: < -0.25

Q: SPST was tested. Which growth estimate did it give?
A: < -0.25

Q: Which growth estimate does the source give for SPSVGEG here?
A: < -0.25

Q: For SPTARQRLMTRSDLGITNRP, which growth estimate is on record?
A: < -0.25

Q: Which growth estimate does the source give for SPTSFVKDSIELTSYRKAAP here?
A: < -0.25

Q: SPTYLRRCAVRHTVTDERFP was tested. Which growth estimate did it give?
A: < -0.25

Q: For SPVGSASPGGYRVVA, which growth estimate is on record?
A: < -0.25

Q: For SPVIAMTVRVYMIFGRGAAG, which growth estimate is on record?
A: < -0.25

Q: For SPYA, which growth estimate is on record?
A: < -0.25

Q: Which growth estimate does the source give for SPYV here?
A: < -0.25

Q: How did the growth estimate turn out when SQAQRQKCNHTVSFHLWGGA was run?
A: < -0.25

Q: For SQATWPISLLRDCDTDCTVL, which growth estimate is on record?
A: < -0.25

Q: How did the growth estimate turn out when SQCNGKLSAISARRCLQRYR was run?
A: < -0.25

Q: How did the growth estimate turn out when SQCWPTPEHAQSADLTTTAS was run?
A: < -0.25

Q: SQGGDSLADVRPVPTSRAPV was tested. Which growth estimate did it give?
A: < -0.25

Q: With SQHVNQRHLRARSLPWLHAH as the substance, how does the growth estimate read?
A: < -0.25

Q: Which growth estimate does the source give for SQIILASKGSPEYR here?
A: < -0.25

Q: For SQKRFDVRRLAGWDRRGVRM, which growth estimate is on record?
A: < -0.25

Q: SQLAEGPFNRGRVAISSSRR was tested. Which growth estimate did it give?
A: < -0.25

Q: Which growth estimate does the source give for SQLFGIRF here?
A: < -0.25

Q: With SQLHASNHPP as the substance, how does the growth estimate read?
A: < -0.25

Q: How did the growth estimate turn out when SQLSDDRQFLRSAY was run?
A: < -0.25

Q: How did the growth estimate turn out when SQLYQQRPNLRCTCRVWAPG was run?
A: < -0.25

Q: How did the growth estimate turn out when SQNGTGHCTSGGSRPLRCAA was run?
A: < -0.25

Q: How did the growth estimate turn out when SQPGHRVEPYALARYTGSSH was run?
A: < -0.25

Q: With SQQGVVGLDH as the substance, how does the growth estimate read?
A: < -0.25

Q: How did the growth estimate turn out when SQQRKHRREAERICLNLTTD was run?
A: < -0.25

Q: Which growth estimate does the source give for SQREILSLR here?
A: < -0.25

Q: With SQRRNVA as the substance, how does the growth estimate read?
A: < -0.25

Q: Which growth estimate does the source give for SQSDGVRMDKGRSASAIIGR here?
A: < -0.25

Q: For SQSNRWSKQASWRLGRRHRA, which growth estimate is on record?
A: < -0.25

Q: For SQT, which growth estimate is on record?
A: < -0.25

Q: SQTTGARRHLCSIRNHSERG was tested. Which growth estimate did it give?
A: < -0.25

Q: Which growth estimate does the source give for SQVFPDQAAPGHLGYPNWWL here?
A: -0.109

Q: How did the growth estimate turn out when SQVTRPGV was run?
A: < -0.25

Q: SQVYKRKADSGRD was tested. Which growth estimate did it give?
A: < -0.25

Q: How did the growth estimate turn out when SRAALYLVEEAGVTTILFAS was run?
A: < -0.25

Q: With SRANLLCNVY as the substance, how does the growth estimate read?
A: < -0.25

Q: How did the growth estimate turn out when SRAQMQRTSLMMRVGTFGIL was run?
A: < -0.25

Q: Which growth estimate does the source give for SRARDLPRRDNQMRRGLEYR here?
A: < -0.25

Q: How did the growth estimate turn out when SRATGEETRRRPA was run?
A: < -0.25

Q: Which growth estimate does the source give for SRAWDKRAAWLTRLTRWSRS here?
A: < -0.25

Q: For SRCLLTSVLYRGETLDHFSG, which growth estimate is on record?
A: < -0.25
